# Assay results from patent US8580297B2, “Components for producing amphoteric liposomes” (Marina Biotech, Inc., priority 2002, dated 2013).
# For at least one compound, name, drawing or mass did not settle the structure.
# Test: Zeta potential profile at varying pH of amphoteric liposomes (zero point = isoelectric point)
# Type: physicochemical
# Conditions: liposomes of 2 mg lipid and 10 mg DMPC; buffer 10 mM Kac, 10 mM HEPES, 150 mM NaCl; extruded 200 nm; value is a pH
# Experimental: FIG. 1 is a graph showing a profile of the zeta potential in mV at varying pH values for the amphoteric liposomes prepared according to Example 4.
# 2 mg of the corresponding lipid and 10 mg of DMPC are dissolved in 4 ml of chloroform/methanol (1:1 v/v) and dried completely in a rotary evaporator. The lipid film is hydrated with 4.3 ml of buffer (10 mM Kac, 10 mM HEPES, 150 mM NaCl, pH 7.5) at a lipid concentration of 5 mM using ultrasonic treatment for 5 minutes. Finally, the suspension is frozen and, following thawing, subjected to multiple extrusions (Avestine LiposoFast, polycarbonate filter, pore width 200 nm). The profile of the zeta potential in mV at varying pH values is illustrated in FIG. 1. The zero point indicates the pH value at which the liposome is discharged. This pH corresponds to the isoelectric point of the lipid and is 4.5 for #8, 5.2 for #34, 5.7 for #25.
structure (smiles),measurement,value
"CCCCC(=O)OCC(COC(=O)CCC(=O)NC(Cc1c[nH]cn1)C(=O)O)OC(=O)CCC [#34, L-histidinyl-dipalmitoylglycerol succinate]","isoelectric point of the lipid (pH value at which the liposome is discharged, zero point of zeta potential)",5.2
